The target of assay [1] is T1, GST-GBP (GluTR-binding protein) (Arabidopsis) (UniProt Q9LU39).
T1 sequence: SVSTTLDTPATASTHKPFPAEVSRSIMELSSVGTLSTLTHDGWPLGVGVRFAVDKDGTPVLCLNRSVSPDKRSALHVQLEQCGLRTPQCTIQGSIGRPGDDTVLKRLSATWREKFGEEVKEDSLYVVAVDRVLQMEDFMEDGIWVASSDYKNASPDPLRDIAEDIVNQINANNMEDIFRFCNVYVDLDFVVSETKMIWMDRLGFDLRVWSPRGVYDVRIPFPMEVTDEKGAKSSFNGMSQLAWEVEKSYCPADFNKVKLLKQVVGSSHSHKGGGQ
Nature of the assay: pull-down; as a1 but in the presence of 500 µM hemin (GST-GBP pre-incubated with hemin 30 min before HIS-GluTR1 was added); both purified.

Assay [2] addresses T1, GST-GBP (GluTR-binding protein) (Arabidopsis). The assay can be described thus: pull-down; 10 µg GST-GBP on GSH-Sepharose, 10 µg HIS-GluTR1 added, 30 min RT, PBSplus (PBS, 10% glycerol, 0.2% Tween 20), washes with 500 mM NaCl; no hemin; 6xHIS-GluTR1 detected with a HIS-tag antibody; both purified.

These are yes or no findings as the source states them, for the method shown. Some entries that bind do so weakly or less than the wild type. Tags and fused reporters may be left off the sequences shown.

B1: 6xHIS-GluTR1 (glutamyl-tRNA reductase 1) (enzyme, UniProt P42804 62-543)
chain: ELSASSDSASNAASISALEQLKNSAADRYTKERSSIVVIGLSIHTAPVEMREKLAIPEAEWPRAIAELCGLNHIEEAAVLSTCNRMEIYVLALSQHRGVKEVTEWMSKTSGIPVSEICQHRFLLYNKDATQHIFEVSAGLDSLVLGEGQILAQVKQVVKVGQGVNGFGRNISGLFKHAITVGKRVRTETNIASGAVSVSSAAVELALMKLPQSSNVSARMCVIGAGKMGKLVIKHLMAKGCTKVVVVNRSEERVSAIREEMPGIEIIYRPLDEMLACASEADVVFTSTASETPLFLKEHVENLPQASPEVGGLRHFVDISVPRNVGSCVGEVETARVYNVDDLKEVVAANKEDRMRKAMEAQTIITEESTQFEAWRDSLETVPTIKKLRAYAERIRVAELEKCMSKMGDDINKKTTRAVDDLSRGIVNRFLHGPMQHLRCDGSDSRTLSETLENMHALNRMYGLEKDILEEKLKAMAEQQQK
Regarding B1, the binding result in assay [1] is “no binding (condition: with 500 µM hemin)”; in assay [2], “binds”.
